# Data taken from the supplement of paper PMC6411743.
# ± gives the standard deviation of the averaged measurements. The list shows a part of the results, in another mix than the full data.
# What was measured:
# Assay in all cases: NP40-soluble protein abundance relative to vehicle (solubility fold change) (ratio); higher = more soluble protein in presence of AMP-PNP
# NHLRC2 = target: T1, NHLRC2 (UniProt Q8NBF2)
# T1 sequence (whole entry): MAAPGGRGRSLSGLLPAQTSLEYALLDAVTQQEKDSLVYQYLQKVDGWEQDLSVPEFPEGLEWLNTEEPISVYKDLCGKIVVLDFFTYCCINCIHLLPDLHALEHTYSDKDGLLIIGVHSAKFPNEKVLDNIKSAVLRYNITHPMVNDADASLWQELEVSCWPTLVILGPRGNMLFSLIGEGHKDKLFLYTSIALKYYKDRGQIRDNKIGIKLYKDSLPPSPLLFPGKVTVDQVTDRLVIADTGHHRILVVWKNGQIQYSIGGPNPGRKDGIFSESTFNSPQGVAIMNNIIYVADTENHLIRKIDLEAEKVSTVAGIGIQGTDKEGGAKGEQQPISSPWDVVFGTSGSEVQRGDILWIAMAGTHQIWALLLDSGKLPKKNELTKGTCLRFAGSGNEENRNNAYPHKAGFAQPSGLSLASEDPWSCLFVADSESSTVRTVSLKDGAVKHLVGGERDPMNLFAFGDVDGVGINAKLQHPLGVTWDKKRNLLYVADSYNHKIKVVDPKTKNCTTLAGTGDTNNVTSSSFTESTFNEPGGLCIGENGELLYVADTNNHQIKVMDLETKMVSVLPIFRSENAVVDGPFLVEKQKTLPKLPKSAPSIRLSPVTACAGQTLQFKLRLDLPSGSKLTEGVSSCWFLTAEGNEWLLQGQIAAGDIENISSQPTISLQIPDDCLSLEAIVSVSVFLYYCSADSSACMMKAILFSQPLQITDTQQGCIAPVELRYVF
# Method in brief: (§1)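 Jurkat crude lysate (Dounce-homogenised) was treated with eight concentrations from 0.1 to 10 mM for 10 min at room temperature, then 3 min at 37 °C. It was solubilised with 0.8% NP40 and benzonase (60 min, 4 °C) and ultracentrifuged, and the supernatant was TMT-labelled for LC-MS/MS. Intensities were vsn-normalised, and the value is the fold change against the NP40-processed vehicle per replicate, from three independent experiments.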
# PLD3 = target: T2, PLD3 (UniProt Q8IV08)
# T2 sequence (whole entry): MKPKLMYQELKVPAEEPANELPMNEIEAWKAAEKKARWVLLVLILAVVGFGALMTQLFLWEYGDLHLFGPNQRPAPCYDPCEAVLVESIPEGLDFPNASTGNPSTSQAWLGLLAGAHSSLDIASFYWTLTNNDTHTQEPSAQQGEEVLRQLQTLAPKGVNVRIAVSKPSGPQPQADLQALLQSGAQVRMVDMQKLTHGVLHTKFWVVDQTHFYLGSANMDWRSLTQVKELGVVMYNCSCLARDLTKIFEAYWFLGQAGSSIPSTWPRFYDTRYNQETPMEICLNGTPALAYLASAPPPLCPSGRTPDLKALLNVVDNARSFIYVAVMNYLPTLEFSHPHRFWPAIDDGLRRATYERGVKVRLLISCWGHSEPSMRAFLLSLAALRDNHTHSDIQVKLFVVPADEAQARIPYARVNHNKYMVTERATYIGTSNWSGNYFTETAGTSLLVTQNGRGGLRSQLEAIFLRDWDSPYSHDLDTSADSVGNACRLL
# Method in brief: as §1
# SLFN11 = target: T3, SLFN11 (UniProt Q7Z7L1)
# T3 sequence (whole entry): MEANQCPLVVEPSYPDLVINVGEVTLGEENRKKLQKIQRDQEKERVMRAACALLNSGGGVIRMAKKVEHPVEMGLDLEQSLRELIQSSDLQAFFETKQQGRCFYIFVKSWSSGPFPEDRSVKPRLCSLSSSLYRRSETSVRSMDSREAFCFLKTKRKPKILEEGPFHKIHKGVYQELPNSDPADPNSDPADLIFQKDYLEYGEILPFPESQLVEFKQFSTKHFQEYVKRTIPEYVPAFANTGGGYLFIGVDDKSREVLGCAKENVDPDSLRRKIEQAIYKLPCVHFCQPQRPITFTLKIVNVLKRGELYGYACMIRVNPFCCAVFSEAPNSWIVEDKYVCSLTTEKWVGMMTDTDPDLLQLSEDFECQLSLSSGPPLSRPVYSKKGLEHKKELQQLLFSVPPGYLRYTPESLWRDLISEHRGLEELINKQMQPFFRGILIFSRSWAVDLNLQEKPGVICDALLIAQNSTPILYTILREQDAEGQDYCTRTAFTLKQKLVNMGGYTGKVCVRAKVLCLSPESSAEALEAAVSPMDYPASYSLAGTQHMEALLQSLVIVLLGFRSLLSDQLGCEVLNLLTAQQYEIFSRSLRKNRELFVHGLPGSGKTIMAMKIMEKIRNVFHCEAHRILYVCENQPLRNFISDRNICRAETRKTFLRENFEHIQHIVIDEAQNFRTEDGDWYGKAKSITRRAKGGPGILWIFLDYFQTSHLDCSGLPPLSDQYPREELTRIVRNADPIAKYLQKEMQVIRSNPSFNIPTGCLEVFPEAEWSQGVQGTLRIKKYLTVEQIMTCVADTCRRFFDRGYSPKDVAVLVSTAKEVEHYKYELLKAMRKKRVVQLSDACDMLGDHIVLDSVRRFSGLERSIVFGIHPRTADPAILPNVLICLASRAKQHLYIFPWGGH
# Method in brief: as §1
# SPATS2 = target: T4, SPATS2 (UniProt Q86XZ4)
# T4 sequence (whole entry): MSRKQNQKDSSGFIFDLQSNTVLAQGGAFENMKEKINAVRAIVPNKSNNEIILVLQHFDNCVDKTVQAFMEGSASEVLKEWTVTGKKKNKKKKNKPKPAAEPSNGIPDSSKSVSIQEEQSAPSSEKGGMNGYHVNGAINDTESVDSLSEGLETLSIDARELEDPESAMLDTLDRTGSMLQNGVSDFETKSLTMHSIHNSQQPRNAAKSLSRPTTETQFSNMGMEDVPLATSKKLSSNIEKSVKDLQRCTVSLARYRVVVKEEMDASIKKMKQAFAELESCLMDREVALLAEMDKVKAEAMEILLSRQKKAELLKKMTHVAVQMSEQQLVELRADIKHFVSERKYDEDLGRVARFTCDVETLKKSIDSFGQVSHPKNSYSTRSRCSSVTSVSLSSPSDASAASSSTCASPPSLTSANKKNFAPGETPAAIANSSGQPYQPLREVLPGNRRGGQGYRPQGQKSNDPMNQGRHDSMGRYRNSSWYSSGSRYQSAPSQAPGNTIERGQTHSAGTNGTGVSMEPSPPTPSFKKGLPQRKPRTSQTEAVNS
# Method in brief: as §1
# STX12 = target: T5, STX12 (UniProt Q86Y82)
# T5 sequence (whole entry): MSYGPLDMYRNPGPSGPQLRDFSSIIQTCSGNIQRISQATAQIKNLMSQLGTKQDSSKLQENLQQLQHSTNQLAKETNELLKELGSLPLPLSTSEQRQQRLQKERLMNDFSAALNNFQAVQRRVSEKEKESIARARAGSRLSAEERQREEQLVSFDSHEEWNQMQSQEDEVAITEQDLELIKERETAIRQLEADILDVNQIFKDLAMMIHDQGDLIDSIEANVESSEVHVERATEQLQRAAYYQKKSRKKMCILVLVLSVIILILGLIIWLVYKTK
# Method in brief: as §1
compound,measurement,setting,value
Nc1ncnc2c1ncn2[C@@H]1O[C@H](COP(=O)(O)OP(=O)(O)NP(=O)(O)O)[C@@H](O)[C@H]1O [adenylyl imidodiphosphate],NP40-soluble protein abundance,NHLRC2; concentration: 1mM,1.01 ± 0.014
same,NP40-soluble protein abundance,NHLRC2; concentration: 2mM,0.967 ± 0.032
same,NP40-soluble protein abundance,NHLRC2; concentration: 4mM,0.9683 ± 0.0036
same,NP40-soluble protein abundance,NHLRC2; concentration: 6mM,0.967 ± 0.03
same,NP40-soluble protein abundance,NHLRC2; concentration: 8mM,0.958 ± 0.022
same,NP40-soluble protein abundance,NHLRC2; concentration: 10mM,0.916 ± 0.015
same,NP40-soluble protein abundance,PLD3; concentration: 1mM,0.99 ± 0.038
same,NP40-soluble protein abundance,PLD3; concentration: 2mM,0.967 ± 0.013
same,NP40-soluble protein abundance,PLD3; concentration: 4mM,0.987 ± 0.029
same,NP40-soluble protein abundance,PLD3; concentration: 6mM,0.9623 ± 0.0042
same,NP40-soluble protein abundance,PLD3; concentration: 8mM,0.9778 ± 0.0079
same,NP40-soluble protein abundance,PLD3; concentration: 10mM,0.988 ± 0.025
same,NP40-soluble protein abundance,SLFN11; concentration: 1mM,1.05 ± 0.018
same,NP40-soluble protein abundance,SLFN11; concentration: 2mM,1.02 ± 0.095
same,NP40-soluble protein abundance,SLFN11; concentration: 4mM,1.04 ± 0.072
same,NP40-soluble protein abundance,SLFN11; concentration: 6mM,1.01 ± 0.04
same,NP40-soluble protein abundance,SLFN11; concentration: 8mM,1.03 ± 0.08
same,NP40-soluble protein abundance,SLFN11; concentration: 10mM,1.03 ± 0.13
same,NP40-soluble protein abundance,SPATS2; concentration: 1mM,1.019 ± 0.0082
same,NP40-soluble protein abundance,SPATS2; concentration: 2mM,1.01 ± 0.038
same,NP40-soluble protein abundance,SPATS2; concentration: 4mM,1.022 ± 0.0088
same,NP40-soluble protein abundance,SPATS2; concentration: 6mM,1.04 ± 0.013
same,NP40-soluble protein abundance,SPATS2; concentration: 8mM,1.02 ± 0.038
same,NP40-soluble protein abundance,SPATS2; concentration: 10mM,1.05 ± 0.036
same,NP40-soluble protein abundance,STX12; concentration: 1mM,1.01 ± 0.016
same,NP40-soluble protein abundance,STX12; concentration: 2mM,1.08 ± 0.059
same,NP40-soluble protein abundance,STX12; concentration: 4mM,1.01 ± 0.051
same,NP40-soluble protein abundance,STX12; concentration: 6mM,1.02 ± 0.031
same,NP40-soluble protein abundance,STX12; concentration: 8mM,0.984 ± 0.016
same,NP40-soluble protein abundance,STX12; concentration: 10mM,0.992 ± 0.049

# Reformatted tab-delimited: part of the list above.
compound	measurement	setting	value
Nc1ncnc2c1ncn2[C@@H]1O[C@H](COP(=O)(O)OP(=O)(O)NP(=O)(O)O)[C@@H](O)[C@H]1O [adenylyl imidodiphosphate]	NP40-soluble protein abundance	SLFN11; concentration: 10mM	1.03 ± 0.13
same	NP40-soluble protein abundance	STX12; concentration: 6mM	1.02 ± 0.031
